PubChem BioAssay AID234 (DTP/NCI, 2004)
The list is a part of this screen's results and no random one: it is rich in T/C values a quarter to a half above the control, in often repeated tests (any T/C) and in doses without a T/C. Further doses and runs are listed elsewhere. T/C: endpoint of the treated group in % of that of the vehicle group. Schedules are NCI's codes, read here as Q, the interval in days (D) or hours (H), X, the number of doses. Some T/C values carry the count of animals alive at the toxicity check (mostly the fifth day); without a count, all were alive then. Some doses have a count of surviving animals in place of a T/C: the source holds a T/C of zero for them, seemingly a mark for toxic or unscored doses. Counts of survivors are from the toxicity check (mostly the fifth day) where no day follows; animals may have died later. Some entries were tested several times; their values stand side by side, smallest first. Some molecules as drawn cover several salts, stereoisomers or complexes of the source; a dose is that of the sample tested.

Test system: C3AKF1 mice, hamster liver cystadenocarcinoma s.c., tumor weight T/C
Test: NCI In Vivo Anticancer Drug Screen. Data for tumor model Cystadenocarcinoma, Liver (No. 1) (Hamster) (subcutaneous) in C3AKF1 (CHKRF1) mice
Conditions: T/C endpoint: mean tumor weight, schedule: Q01DX010 (ip), higher T/C = larger tumour; for T/C: evaluated on day 15
Description: The antitumor activity of compounds was measured in mice bearing transplantable tumors. Survival or tumor size were measured and the results are expressed as the measurement made in the treated group (T) divided by the measurement made in the vehicle treated control group (C). The tumor model used in this assay is Cystadenocarcinoma, Liver (No. 1) (Hamster) (subcutaneous) in C3AKF1 (CHKRF1) mice

[1] = dose: 80.0 mg/kg/injection, vehicle: carboxymethylcellulose (CMC)
[2] = dose: 160.0 mg/kg/injection, vehicle: carboxymethylcellulose (CMC)
[3] = dose: 200.0 mg/kg/injection, vehicle: carboxymethylcellulose (CMC)
[4] = dose: 400.0 mg/kg/injection, vehicle: carboxymethylcellulose (CMC)
[5] = dose: 1000.0 mg/kg/injection, vehicle: carboxymethylcellulose (CMC)
[6] = dose: 25.0 mg/kg/injection, vehicle: carboxymethylcellulose (CMC)
[7] = dose: 100.0 mg/kg/injection, vehicle: carboxymethylcellulose (CMC)
[8] = dose: 400.0 mg/kg/injection, vehicle: saline
[9] = dose: 600.0 mg/kg/injection, vehicle: carboxymethylcellulose (CMC)
[10] = dose: 40.0 mg/kg/injection, vehicle: carboxymethylcellulose (CMC)
[11] = dose: 10.0 mg/kg/injection, vehicle: carboxymethylcellulose (CMC)
[12] = dose: 16.0 mg/kg/injection, vehicle: carboxymethylcellulose (CMC)
[13] = dose: 75.0 mg/kg/injection, vehicle: carboxymethylcellulose (CMC)
[14] = dose: 150.0 mg/kg/injection, vehicle: carboxymethylcellulose (CMC)
[15] = dose: 60.0 mg/kg/injection, vehicle: carboxymethylcellulose (CMC)
[16] = dose: 120.0 mg/kg/injection, vehicle: carboxymethylcellulose (CMC)
[17] = dose: 500.0 mg/kg/injection, vehicle: carboxymethylcellulose (CMC)
[18] = dose: 240.0 mg/kg/injection, vehicle: carboxymethylcellulose (CMC)
[19] = dose: 1200.0 mg/kg/injection, vehicle: carboxymethylcellulose (CMC)

In the case of `CN(C)Nc1ncnc2nc[nH]c12`, the T/C [1] is reported as 125 % of control and the survivor count [2] is reported as 0 of 6.
For `C=CCNc1ccc(C)cc1`, the survivor count (dose: 185.0 mg/kg/injection, vehicle: saline) was 0 of 7, the survivor count (dose: 275.0 mg/kg/injection, vehicle: saline) was 0 of 7 and the survivor count (dose: 415.0 mg/kg/injection, vehicle: saline) was 0 of 7.
For `Nc1nc(SCc2ccccc2Cl)c2[nH]cnc2n1`, the survivor count [3] was 2 of 6 and the survivor count [4] was 0 of 6.
For `O=P(c1ccccc1)(N1CC1)N1CC1`, the T/C (dose: 12.0 mg/kg/injection, vehicle: saline) was 126 % of control, the survivor count (dose: 24.0 mg/kg/injection, vehicle: saline) was 2 of 6 and the survivor count (dose: 48.0 mg/kg/injection, vehicle: saline) was 3 of 6. For the same molecule, the survivor count (dose: 96.0 mg/kg/injection, vehicle: saline) was 0 of 6.
For `C/C=C1\CN(C)[C@H]2Cc3c([nH]c4ccccc34)[C@@H](c3cc4[nH]c5c(c4cc3OC)CCN3C[C@H]4C[C@H](CC)[C@H]3[C@@]5(C(=O)OC)C4)C[C@H]1C2C(=O)OC` (some centres undefined), the survivor count (dose: 30.0 mg/kg/injection, vehicle: water) was 1 of 7 and the survivor count (dose: 45.0 mg/kg/injection, vehicle: water) was 0 of 7 and 1 of 8.
With `CCCCSc1nc(N)nc2c1ncn2CC(C)CC` (centres undefined) the survivor count [5] was 0 of 6.
`Nc1nc(SCc2ccccc2Cl)c2ncn(C3OC(CO)C(O)C3O)c2n1` (centres undefined) was tested, and the T/C [6] was 141 % of control [4 of 6 alive], the survivor count [7] was 3 of 6 and the survivor count [3] was 1 of 6.
For `CC(C)NCC(=O)c1ccc(O)c(O)c1`, the survivor count [8] was 2 of 6.
`ClCCn1cnc2c(SCc3ccccc3Cl)ncnc21` was tested, and the survivor count [7] was 3 of 6, the survivor count [4] was 2 of 6 and the survivor count [9] was 0 of 6.
With `CSc1ncc(Br)c(Sc2nc(N)nc3nc[nH]c23)n1` the survivor count (dose: 18.0 mg/kg/injection, vehicle: carboxymethylcellulose (CMC)) was 4 of 7 and the survivor count [10] was 1 of 7.
With `CC1(C)N=C(N)N=C(N)N1c1cccc(Br)c1` the survivor count [11] was 1 of 6 and 3 of 7, the survivor count [12] was 3 of 6 and the survivor count [6] was 1 of 6. For the same molecule, the survivor count (dose: 37.0 mg/kg/injection, vehicle: carboxymethylcellulose (CMC)) was 0 of 6.
For `CCN(CC)CCNc1ccc([N+](=O)[O-])c2sc3ccccc3c(=O)c12`, the survivor count (dose: 80.0 mg/kg/injection, vehicle: saline) was 3 of 6 and the survivor count (dose: 160.0 mg/kg/injection, vehicle: saline) was 0 of 6.
`CC(=O)NCCSC(=O)C(=O)SCCNC(C)=O` was tested, and the survivor count [3] was 3 of 6.
With `CSc1ncnc2c1ncn2C1CCCO1` (centres undefined) the survivor count [3] was 1 of 7 and the survivor count [4] was 0 of 7.
`CC(C)CCSc1nc(N)nc2nc[nH]c12` was tested, and the survivor count (dose: 360.0 mg/kg/injection, vehicle: carboxymethylcellulose (CMC)) was 0 of 6.
`CCOc1ccc(Nc2ncnc3nc[nH]c23)cc1CN(CCCl)CCCl` was tested, and the survivor count (dose: 8.0 mg/kg/injection, vehicle: saline) was 0 of 6.
With `N#C[C@@H]1C2C=CC(CC2)[C@H]1C#N` the survivor count (dose: 4.0 mg/kg/injection, vehicle: carboxymethylcellulose (CMC)) was 1 of 6.
`Nc1ncnc2c1ncn2C1CCCO1` (centres undefined) was tested, and the survivor count [3] was 3 of 6, the survivor count [4] was 1 of 6 and the survivor count [9] was 0 of 6.
In the case of `CC(C)(c1ccccc1)c1ccc(O)cc1`, the survivor count [13] is reported as 3 of 7, the survivor count [14] is reported as 0 of 7 and the survivor count (dose: 300.0 mg/kg/injection, vehicle: carboxymethylcellulose (CMC)) is reported as 0 of 7.
In the case of `CCN(CC)CC(C)Nc1ccc(C)c2sc3ccccc3c(=O)c12` (centres undefined), the survivor count [3] is reported as 1 of 6.
With `CN(N=O)C(N)=O` the T/C (dose: 7.5 mg/kg/injection, vehicle: carboxymethylcellulose (CMC)) was 129 % of control, the survivor count [15] was 3 of 6 and the survivor count [16] was 0 of 6.
`O=C(O)c1ccc(-c2ccccc2)cc1` was tested, and the survivor count [3] was 1 of 7 and the survivor count [4] was 0 of 7.
`CC1CN1C(=O)c1cc(C(=O)N2CC2C)cc(C(=O)N2CC2C)c1` (centres undefined) was tested, and the survivor count [16] was 1 of 6.
For `c1ccc2c(c1)ccc1cc3c(ccc4ccccc43)cc12`, the survivor count [17] was 2 of 6.
`CNC=O` was tested, and the survivor count [8] was 1 of 6.
`NC(N)=N/N=C/C=N/N=C(N)N` was tested, and the survivor count [15] was 0 of 6, the survivor count [16] was 0 of 6 and the survivor count [18] was 0 of 6.
For `O=[n+]1c2c(n([O-])c3ccccc31)-c1cccc3cccc-2c13`, the survivor count [3] was 3 of 7.
For `CCCCCCCCCCCCCCCCC(C(=O)O)C(O)(CC(=O)O)C(=O)O` (centres undefined), the survivor count [13] was 0 of 7 and the survivor count [14] was 0 of 7.
With `ClCCn1cnc2c(SCc3ccccc3)ncnc21` the survivor count [4] was 3 of 6, the survivor count [9] was 3 of 6 and the survivor count [19] was 3 of 6.
For `Cc1ccc(N2CCN(CCCN3CCN(c4ccc(Cl)cc4)CC3)CC2)cc1`, the survivor count [15] was 3 of 6.
`O=C(Nc1ccc(C2=NCCN2)cc1)c1ccc(C(=O)Nc2ccc(C3=NCCN3)cc2)c(Cl)c1` was tested, and the survivor count (dose: 40.0 mg/kg/injection, vehicle: saline) was 3 of 8.
`CCC1=C(c2cc(Cl)c3ccccc3c2OCC(=O)O)OC(CC)(C(=O)c2cc(Cl)c3ccccc3c2OCC(=O)O)CC1` (centres undefined) was tested, and the survivor count [18] was 1 of 6.
For `O=CC(O)CO` (centres undefined), the T/C [17] was 131 % of control [5 of 7 alive] and the survivor count [5] was 1 of 7.
In the case of `CS(=O)(=O)OCC(=O)NCCNC(=O)COS(C)(=O)=O`, the T/C [1] is reported as 127 % of control and the survivor count [2] is reported as 0 of 6.
With `NC(Cc1ccc(N(CCCl)CCCl)cc1)C(=O)O` (centres undefined) the survivor count (dose: 8.0 mg/kg/injection, vehicle: carboxymethylcellulose (CMC)) was 0 of 6, the survivor count [11] was 1 of 6 and the survivor count [12] was 0 of 6. For the same molecule, the survivor count (dose: 20.0 mg/kg/injection, vehicle: carboxymethylcellulose (CMC)) was 0 of 6.
In the case of `CCCCn1cnc2c(SC)nc(N)nc21`, the survivor count (dose: 230.0 mg/kg/injection, vehicle: carboxymethylcellulose (CMC)) is reported as 4 of 7.
For `O=C(O)Cc1ccc(C2CCCCC2)cc1`, the survivor count [9] was 1 of 7 and the survivor count [19] was 0 of 7.
With `CN(C)c1ccc(/C=C\c2ccnc3ccccc23)cc1` the survivor count [10] was 1 of 8 and the survivor count [1] was 0 of 8.
`Clc1ccc2c(Cl)ncnc2c1` was tested, and the survivor count (dose: 19.0 mg/kg/injection, vehicle: carboxymethylcellulose (CMC)) was 4 of 7, the survivor count (dose: 37.5 mg/kg/injection, vehicle: carboxymethylcellulose (CMC)) was 0 of 7 and the survivor count [13] was 0 of 7. The survivor count [14] was 0 of 7.
